Laboratory results taken from patent US20240190838A1, “LZK-TARGETING DEGRADERS AND METHODS OF USE” (The U.S.A., as represented by the Secretary, Department of …, priority 2020, published 2024).
Some results were stated once for a whole list of compounds, not compound by compound.

What was measured:
[1] = molecular target: T1, LZK (Homo sapiens, UniProt O43283); assay: LZK degradation (doxycycline-induced LZK expression, immunoblot) in CAL33 cells; format: cell-based; design: V5 (named only in the vector); expressed in transfected cells; host or cells: CAL33 HNSCC cells, lentiviral T-REx system, induced with doxycycline; conditions: CAL33, doxycycline 48 hours, LZK PROTAC 24 hours, 0-10 μM
T1 sequence (O43283 1-966): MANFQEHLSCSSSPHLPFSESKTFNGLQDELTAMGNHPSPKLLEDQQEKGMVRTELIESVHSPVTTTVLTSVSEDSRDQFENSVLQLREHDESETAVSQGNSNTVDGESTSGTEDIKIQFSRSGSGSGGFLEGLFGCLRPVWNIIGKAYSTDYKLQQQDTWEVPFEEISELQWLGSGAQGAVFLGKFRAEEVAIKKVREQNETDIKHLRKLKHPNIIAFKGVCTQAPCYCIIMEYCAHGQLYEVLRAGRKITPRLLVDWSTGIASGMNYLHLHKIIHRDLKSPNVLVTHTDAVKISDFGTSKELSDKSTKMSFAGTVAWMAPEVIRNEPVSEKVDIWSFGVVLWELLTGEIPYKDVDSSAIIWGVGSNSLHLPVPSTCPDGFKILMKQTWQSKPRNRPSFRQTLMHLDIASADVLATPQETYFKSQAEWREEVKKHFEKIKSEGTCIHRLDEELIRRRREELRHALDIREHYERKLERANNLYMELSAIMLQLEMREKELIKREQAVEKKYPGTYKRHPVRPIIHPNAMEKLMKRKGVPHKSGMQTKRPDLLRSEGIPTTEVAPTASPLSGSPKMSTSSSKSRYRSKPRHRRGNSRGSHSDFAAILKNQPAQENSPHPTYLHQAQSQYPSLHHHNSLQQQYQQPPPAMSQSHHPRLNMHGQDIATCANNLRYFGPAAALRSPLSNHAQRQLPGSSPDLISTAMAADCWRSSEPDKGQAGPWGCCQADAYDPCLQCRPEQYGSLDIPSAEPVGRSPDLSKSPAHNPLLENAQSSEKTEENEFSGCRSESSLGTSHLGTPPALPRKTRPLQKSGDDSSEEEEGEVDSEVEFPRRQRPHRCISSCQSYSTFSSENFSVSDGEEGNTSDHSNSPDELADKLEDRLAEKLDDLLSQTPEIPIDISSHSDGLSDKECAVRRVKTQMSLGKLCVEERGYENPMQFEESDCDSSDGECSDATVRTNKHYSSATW
Excerpt: (§1) The ViraPower HiPerform T-REx Gateway Expression System (Invitrogen) was used to generate cells with tetracycline-inducible expression of LZK. In brief, wild-type (WT) or drug-resistant mutant (Q240S) LZK (cloned into pLenti6.3/TO/V5-DEST vector) and pLenti3.3/TR (for tetracycline repressor expression) were transfected into 293FT cells using Lipofectamine 2000 to generate lentiviral stock. Cell lines were generated by antibiotic selection (blasticidin [Gibco] and geneticin [Gibco]). Doxycycline (Sigma-Aldrich) was used at 1 μg/mL to induce LZK expression.
(§2) Generally, cells were plated in six-well or 35-mm plates for 24 hours, after which doxycycline was added or treatment with specific inhibitor was administered using 50 FBS media for 48 hours. […] Protein concentrations were determined from the cell lysate by using 660 nm Protein Assay Reagent (Pierce). […] The membranes were incubated with the specific antibodies overnight in […] at 4° C. followed by a 1 hour incubation with the appropriate horseradish peroxidase-conjugated secondary antibodies and signal was detected by chemiluminescence (Thermo Fisher).

[2] = molecular target: T1, LZK; assay: LZK inhibition in cells monitored by downstream JNK phosphorylation (dox-induced LZK); format: cell-based; design: V5 (named only in the vector); expressed in transfected cells; host or cells: CAL33 HNSCC cells, lentiviral T-REx system, induced with doxycycline; conditions: CAL33 cells induced with doxycycline; 0-10 μM
Excerpt: as §1
as §2, with “Fisher). […]” for “Fisher).”

## Cc1ncsc1-c1ccc([C@H](C)NC(=O)[C@@H]2C[C@@H](O)CN2C(=O)[C@@H](NC(=O)c2cncc(C(=O)N3CCC(c4cc(Nc5cc(C#N)ccn5)nc(N5CCC(F)(F)C5)c4)CC3)c2)C(C)(C)C)cc1 [Compound 7]
[1]
  LZK degradation / dox-induced LZK expression: promoted LZK degradation
[2]
  JNK signaling inhibition by targeted degraders: inhibited JNK signaling at higher concentrations
